Results on two substances are retold here after paper PMC9867347 (Pharmaceuticals, 2022).

HELM strings list residues between dots; [ac] is acetyl, [am] amide, other brackets name non-standard units.

A short description of this data set: general procedure: Fmoc solid-phase peptide synthesis; 2-chlorotritylchloride resin (1 g, 0.93 mmol/g, 1% DVB, 100-200 mesh); main text names Wang resin; HOBt/DIC; main text names HCTU/N,N-diisopropylethylamine. As to conditions: for isolated yield: scale of the general procedure 1 g resin, loading capacity 0.93 mmol/g.

With Ac-Cys-Asp6-OH, the isolated mass (whole synthesis) came out at 218 mg. For the same substance, the isolated yield by setting is: (whole synthesis, run 1) 51%; (whole synthesis, run 2) 80%.

Regarding “PEPTIDE1{[ac].C.D.D.D.D.D.D}|CHEM1{[AcacetinEMCH]}$PEPTIDE1,CHEM1,2:R3-1:R1$$$V2.0”, the conjugation yield (conjugation step) is given as 71%.
